Reference: PubChem BioAssay AID1259308 (NCATS, 2017)

Assay: 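Knock-downs that increase output of a recombinant reporter protein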 (primary screen)
Cells: human HEK293 embryonic kidney cells stably expressing firefly luciferase (HEK-CMV-Luc2-Hygro)
Knock-down reagent: single siRNA against human genes, 0.8 pmol siRNA per well
Timing: 72 h
Measured: 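Reporter luminescence and viable-cell signal on separate replicate plates, given as percent of non-targeting control and median/MAD z-scores, plus per-cell luciferase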
Reading the numbers: total luciferase, z-score: higher = more reporter protein produced
Rule for the call: 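Active when the median/MAD z-score for overall luciferase is greater than 3; a gene was taken forward for validation with new siRNAs if at least two of its three siRNAs passed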
Calls: active = raised luciferase; inactive = no rise
In all, the deposit lists about 59,000 reagents; this is a part drawn at random. About 1,510 of all reagents (2.6%) count as active. 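Calls use total luciferase alone and ignore viability, so some active siRNAs may act by altering cell number.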 Entries without a mark were called inactive. Reagents against one gene are numbered here. Not all columns of the deposit are shown.

total luciferase, z-score, by target gene and reagent
ARL6IP4 (ARF like GTPase 6 interacting protein 4): #1 1.17; #2 1.96; #3 -0.214
CABP4 (calcium binding protein 4): #1 -0.323; #2 -0.976; #3 0.206
FGD6 (FYVE, RhoGEF and PH domain containing 6): #1 -1.21; #2 -1.25; #3 0.629
ABCG1 (ATP binding cassette subfamily G member 1): #1 -0.305; #2 -0.137; #3 -0.455
USP42 (ubiquitin specific peptidase 42): #1 1.56; #2 -0.412; #3 1.96
ANTXRL (ANTXR like): #1 0.43; #2 -0.394; #3 1.69
DEFB121 (defensin beta 121): #1 -0.566; #2 0.71; #3 -1.03
FMNL3 (formin like 3): #1 -1.63; #2 -0.157; #3 0.0794
KLRC4 (killer cell lectin like receptor C4): #1 -0.0182; #2 0.509; #3 -0.354
GTPBP2 (GTP binding protein 2): #1 -0.994; #2 0.92; #3 -0.446
ZNF285CP (zinc finger protein 285C, pseudogene): #1 0.548; #2 -0.874; #3 3.26 (active); #4 -2.42; #5 -0.382; #6 1.47
SLC25A2: #1 -1.84; #2 0.842; #3 -0.315
